Results published in the supplement of paper PMC10849652.
The list shows a part of the results.

The chains behind the UniProt entries cited, without tags or fusion partners. Where a name states a change or a piece, a line headed by the entry shows the natural chain unless it says otherwise.
UniProt Q9BZ95: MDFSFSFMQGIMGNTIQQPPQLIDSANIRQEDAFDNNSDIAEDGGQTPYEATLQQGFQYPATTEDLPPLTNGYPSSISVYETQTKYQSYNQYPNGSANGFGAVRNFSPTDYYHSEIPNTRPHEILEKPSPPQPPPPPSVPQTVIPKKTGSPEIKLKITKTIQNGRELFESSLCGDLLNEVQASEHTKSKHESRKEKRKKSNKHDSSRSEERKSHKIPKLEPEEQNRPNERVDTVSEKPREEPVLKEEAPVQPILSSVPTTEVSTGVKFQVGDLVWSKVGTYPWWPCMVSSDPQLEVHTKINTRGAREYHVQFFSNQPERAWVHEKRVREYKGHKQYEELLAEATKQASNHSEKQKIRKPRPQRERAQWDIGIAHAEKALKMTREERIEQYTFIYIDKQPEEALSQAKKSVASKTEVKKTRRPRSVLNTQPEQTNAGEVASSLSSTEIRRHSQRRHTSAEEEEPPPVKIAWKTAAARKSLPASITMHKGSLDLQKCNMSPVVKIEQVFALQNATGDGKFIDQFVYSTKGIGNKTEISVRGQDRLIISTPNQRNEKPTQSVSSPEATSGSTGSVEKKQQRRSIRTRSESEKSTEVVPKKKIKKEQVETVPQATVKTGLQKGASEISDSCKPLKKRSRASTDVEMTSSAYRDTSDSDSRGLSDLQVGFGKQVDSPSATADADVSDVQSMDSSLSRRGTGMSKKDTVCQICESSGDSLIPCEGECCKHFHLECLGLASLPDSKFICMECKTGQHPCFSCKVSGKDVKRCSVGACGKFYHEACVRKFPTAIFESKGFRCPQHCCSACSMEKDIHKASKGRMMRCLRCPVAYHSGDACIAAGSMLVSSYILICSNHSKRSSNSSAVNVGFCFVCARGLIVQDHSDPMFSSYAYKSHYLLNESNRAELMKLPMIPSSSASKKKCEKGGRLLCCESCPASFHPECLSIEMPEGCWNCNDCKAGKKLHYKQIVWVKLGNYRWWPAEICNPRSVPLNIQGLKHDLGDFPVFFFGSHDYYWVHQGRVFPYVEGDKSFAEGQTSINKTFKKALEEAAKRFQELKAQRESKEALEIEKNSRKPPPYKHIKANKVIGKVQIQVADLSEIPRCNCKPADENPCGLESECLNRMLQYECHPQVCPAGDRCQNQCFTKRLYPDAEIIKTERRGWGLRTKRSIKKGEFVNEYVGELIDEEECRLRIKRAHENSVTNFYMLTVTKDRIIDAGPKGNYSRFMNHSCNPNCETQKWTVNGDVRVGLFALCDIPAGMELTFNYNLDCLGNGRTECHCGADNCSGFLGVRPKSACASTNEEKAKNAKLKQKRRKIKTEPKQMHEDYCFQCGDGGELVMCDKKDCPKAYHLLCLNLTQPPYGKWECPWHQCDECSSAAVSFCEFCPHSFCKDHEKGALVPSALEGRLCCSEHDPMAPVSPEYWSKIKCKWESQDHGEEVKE
UniProt Q14978: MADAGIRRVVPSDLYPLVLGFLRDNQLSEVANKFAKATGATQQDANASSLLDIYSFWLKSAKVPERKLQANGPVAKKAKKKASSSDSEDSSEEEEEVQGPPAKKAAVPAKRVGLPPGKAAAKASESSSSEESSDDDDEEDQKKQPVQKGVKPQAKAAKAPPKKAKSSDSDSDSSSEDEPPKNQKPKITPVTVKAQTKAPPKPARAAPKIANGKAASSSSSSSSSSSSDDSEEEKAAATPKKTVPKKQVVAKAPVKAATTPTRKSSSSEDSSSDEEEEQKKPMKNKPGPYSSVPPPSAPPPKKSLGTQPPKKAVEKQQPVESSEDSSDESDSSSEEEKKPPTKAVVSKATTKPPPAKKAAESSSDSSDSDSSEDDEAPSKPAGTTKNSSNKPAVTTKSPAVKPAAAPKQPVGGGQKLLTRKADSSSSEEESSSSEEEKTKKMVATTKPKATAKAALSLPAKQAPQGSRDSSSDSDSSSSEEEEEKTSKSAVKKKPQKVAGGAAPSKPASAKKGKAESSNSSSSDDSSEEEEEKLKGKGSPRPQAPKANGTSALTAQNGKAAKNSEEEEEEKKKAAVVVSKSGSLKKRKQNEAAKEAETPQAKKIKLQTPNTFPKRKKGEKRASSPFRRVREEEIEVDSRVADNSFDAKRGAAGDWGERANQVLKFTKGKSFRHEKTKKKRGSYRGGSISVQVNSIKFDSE
UniProt Q9HBL8: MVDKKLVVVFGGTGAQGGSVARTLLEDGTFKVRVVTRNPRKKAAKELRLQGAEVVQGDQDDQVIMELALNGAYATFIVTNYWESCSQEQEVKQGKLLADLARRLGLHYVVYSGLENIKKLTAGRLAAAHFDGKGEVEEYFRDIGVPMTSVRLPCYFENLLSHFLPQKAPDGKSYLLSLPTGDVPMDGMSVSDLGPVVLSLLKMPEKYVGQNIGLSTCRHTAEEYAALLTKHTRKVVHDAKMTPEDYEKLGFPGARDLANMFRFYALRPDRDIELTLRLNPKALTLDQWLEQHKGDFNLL
UniProt Q9Y5B8, whole entry, looked up: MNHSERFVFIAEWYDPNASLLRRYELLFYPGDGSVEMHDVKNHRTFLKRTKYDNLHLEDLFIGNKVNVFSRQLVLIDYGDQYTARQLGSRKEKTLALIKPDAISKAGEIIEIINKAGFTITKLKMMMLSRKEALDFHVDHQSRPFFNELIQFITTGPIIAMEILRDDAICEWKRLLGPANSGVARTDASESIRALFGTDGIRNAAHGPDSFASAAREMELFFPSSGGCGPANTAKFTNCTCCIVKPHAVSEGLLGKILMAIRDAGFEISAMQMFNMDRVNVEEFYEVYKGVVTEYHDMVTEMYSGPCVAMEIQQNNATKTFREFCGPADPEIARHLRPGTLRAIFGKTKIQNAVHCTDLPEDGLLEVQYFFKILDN
UniProt Q96IY1: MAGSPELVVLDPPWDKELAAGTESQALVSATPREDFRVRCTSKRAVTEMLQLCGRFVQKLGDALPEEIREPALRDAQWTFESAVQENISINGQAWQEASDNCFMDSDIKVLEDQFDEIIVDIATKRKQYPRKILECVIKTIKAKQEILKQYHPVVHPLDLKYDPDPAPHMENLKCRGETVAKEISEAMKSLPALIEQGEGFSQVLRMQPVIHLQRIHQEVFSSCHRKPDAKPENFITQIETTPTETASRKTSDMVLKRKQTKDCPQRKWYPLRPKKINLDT
UniProt Q7RTR2: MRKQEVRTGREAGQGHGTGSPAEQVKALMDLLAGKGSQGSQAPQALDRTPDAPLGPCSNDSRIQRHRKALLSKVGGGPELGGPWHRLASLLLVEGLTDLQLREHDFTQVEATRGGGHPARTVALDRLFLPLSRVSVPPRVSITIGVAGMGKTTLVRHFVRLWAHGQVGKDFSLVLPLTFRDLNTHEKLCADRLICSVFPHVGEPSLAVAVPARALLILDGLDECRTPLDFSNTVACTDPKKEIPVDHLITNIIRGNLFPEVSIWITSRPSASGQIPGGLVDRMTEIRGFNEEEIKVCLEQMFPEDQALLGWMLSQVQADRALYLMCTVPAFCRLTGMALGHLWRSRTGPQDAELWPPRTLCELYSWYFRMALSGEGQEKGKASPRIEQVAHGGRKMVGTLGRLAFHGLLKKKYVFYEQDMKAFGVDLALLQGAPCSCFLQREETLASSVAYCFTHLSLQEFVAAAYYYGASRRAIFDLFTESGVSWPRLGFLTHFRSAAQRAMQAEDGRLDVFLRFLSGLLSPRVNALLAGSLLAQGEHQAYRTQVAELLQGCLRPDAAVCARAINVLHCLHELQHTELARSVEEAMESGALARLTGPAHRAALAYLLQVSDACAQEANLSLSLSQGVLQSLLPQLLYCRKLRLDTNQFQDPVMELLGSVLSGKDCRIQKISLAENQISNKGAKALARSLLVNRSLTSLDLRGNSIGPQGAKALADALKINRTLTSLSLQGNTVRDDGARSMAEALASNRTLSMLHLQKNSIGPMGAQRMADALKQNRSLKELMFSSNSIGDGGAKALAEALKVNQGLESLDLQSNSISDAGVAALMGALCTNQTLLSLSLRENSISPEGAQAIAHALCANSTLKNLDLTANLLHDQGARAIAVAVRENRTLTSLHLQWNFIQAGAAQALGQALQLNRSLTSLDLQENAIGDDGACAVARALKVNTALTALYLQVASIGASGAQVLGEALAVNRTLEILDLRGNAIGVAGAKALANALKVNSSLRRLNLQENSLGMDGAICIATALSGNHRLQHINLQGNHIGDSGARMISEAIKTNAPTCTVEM
UniProt P51956: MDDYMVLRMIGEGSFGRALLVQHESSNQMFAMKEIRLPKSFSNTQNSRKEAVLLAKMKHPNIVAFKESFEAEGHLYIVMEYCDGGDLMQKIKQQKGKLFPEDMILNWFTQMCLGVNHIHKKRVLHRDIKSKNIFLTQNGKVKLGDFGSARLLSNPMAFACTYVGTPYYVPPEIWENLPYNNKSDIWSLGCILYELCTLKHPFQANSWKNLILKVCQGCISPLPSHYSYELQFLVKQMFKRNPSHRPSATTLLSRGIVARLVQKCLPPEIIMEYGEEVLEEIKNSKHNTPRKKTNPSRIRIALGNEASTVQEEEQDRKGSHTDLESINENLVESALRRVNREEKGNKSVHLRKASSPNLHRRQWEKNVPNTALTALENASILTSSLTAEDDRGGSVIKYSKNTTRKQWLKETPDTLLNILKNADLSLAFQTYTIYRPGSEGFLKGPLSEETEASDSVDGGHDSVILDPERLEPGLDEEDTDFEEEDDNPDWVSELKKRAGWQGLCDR
UniProt O60551: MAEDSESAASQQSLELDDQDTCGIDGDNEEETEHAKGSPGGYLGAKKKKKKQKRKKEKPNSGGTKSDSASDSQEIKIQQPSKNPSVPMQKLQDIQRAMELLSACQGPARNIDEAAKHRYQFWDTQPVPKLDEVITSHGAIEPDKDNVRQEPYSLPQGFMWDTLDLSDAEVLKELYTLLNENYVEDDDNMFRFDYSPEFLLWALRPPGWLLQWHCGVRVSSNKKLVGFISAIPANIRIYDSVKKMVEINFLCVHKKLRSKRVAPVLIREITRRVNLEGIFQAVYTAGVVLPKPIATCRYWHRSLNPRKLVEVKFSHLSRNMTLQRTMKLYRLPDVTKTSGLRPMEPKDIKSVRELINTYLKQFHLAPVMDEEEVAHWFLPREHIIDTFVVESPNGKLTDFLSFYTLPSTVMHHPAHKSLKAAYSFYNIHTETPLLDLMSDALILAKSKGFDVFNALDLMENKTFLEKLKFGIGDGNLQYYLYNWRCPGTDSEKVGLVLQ

Key:
Assay in all cases: log2 fold change, soluble protein after heating vs DMSO (PISA); higher = thermal stabilisation; K562 cells, 10 uM, 30 min; active = over 0.2 and 3.5 SD of the protein, either way, in both replicates (recomputed)
[1] = compound: COC1=CC=C(C=C1)CN2C=CC3=C2C=C(C=C3)C(=O)NO
Summary of the method: (§1)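 K562 cells at 2×10^6 cells/mL were given 10 μM compound for 30 min. Aliquots then went through 3 min of heating across 48°C-58°C, were pooled, and were extracted in PBS with 0.5% NP-40 at 4°C, and the supernatant after 21,000xg for 90 min was quantified by TMTpro 16plex LC-MS/MS with channel sums equalised. Thermal stability relative to control samples, from duplicates, is given as log2 fold change.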

filanesib = compound: CON(C)C(=O)N1N=C(c2cc(F)ccc2F)S[C@@]1(CCCN)c1ccccc1 [filanesib]
Summary of the method: as §1

zotarolimus = compound: CO[C@H]1C[C@@H]2CC[C@@H](C)[C@@](O)(O2)C(=O)C(=O)N2CCCC[C@H]2C(=O)O[C@H]([C@H](C)C[C@@H]2CC[C@H](n3cnnn3)[C@H](OC)C2)CC(=O)[C@H](C)/C=C(\C)[C@@H](O)[C@@H](OC)C(=O)[C@H](C)C[C@H](C)/C=C/C=C/C=C/1C [zotarolimus]
Summary of the method: as §1

idasanutlin = compound: COc1cc(C(=O)O)ccc1NC(=O)[C@@H]1N[C@@H](CC(C)(C)C)[C@](C#N)(c2ccc(Cl)cc2F)[C@H]1c1cccc(Cl)c1F [idasanutlin]
Summary of the method: as §1

pictilisib = compound: CS(=O)(=O)N1CCN(Cc2cc3nc(-c4cccc5[nH]ncc45)nc(N4CCOCC4)c3s2)CC1 [pictilisib]
Summary of the method: as §1

[2] = compound: CS(=O)(=O)c1ccc(-c2cnc(N)c(C(=O)Nc3ccccc3)n2)cc1
Summary of the method: as §1

crizotinib = compound: C[C@@H](Oc1cc(-c2cnn(C3CCNCC3)c2)cnc1N)c1c(Cl)ccc(F)c1Cl [crizotinib]
Summary of the method: as §1

[3] = compound: C[C@@H]1COCCN1C2=NC(=NC(=C2)C3(CC3)S(=O)(=O)C)C4=C5C=CNC5=CC=C4
Summary of the method: as §1

[4] = compound: C[C@H](C1=CC=C(C=C1)C(=O)NC2=C3C=CNC3=NC=C2)N
Summary of the method: as §1

duvelisib = compound: C[C@H](Nc1ncnc2nc[nH]c12)c1cc2cccc(Cl)c2c(=O)n1-c1ccccc1 [duvelisib]
Summary of the method: as §1

gandotinib = compound: Cc1cc(Nc2cc(CN3CCOCC3)c3nc(C)c(Cc4ccc(Cl)cc4F)n3n2)n[nH]1 [gandotinib]
Summary of the method: as §1

tozasertib = compound: Cc1cc(Nc2cc(N3CCN(C)CC3)nc(Sc3ccc(NC(=O)C4CC4)cc3)n2)n[nH]1 [tozasertib]
Summary of the method: as §1

[5] = compound: Cc1cc(SCc2sc(-c3ccc(C(F)(F)F)cc3)nc2C)ccc1OCC(=O)O
Summary of the method: as §1

doramapimod = compound: Cc1ccc(-n2nc(C(C)(C)C)cc2NC(=O)Nc2ccc(OCCN3CCOCC3)c3ccccc23)cc1 [doramapimod]
Summary of the method: as §1

alisertib = compound: COc1cc(Nc2ncc3c(n2)-c2ccc(Cl)cc2C(c2c(F)cccc2OC)=NC3)ccc1C(=O)O [alisertib]
Summary of the method: as §1

[6] = compound: COc1cc2nc(-c3cc(F)ccc3O)nc(N[C@@H]3CNC[C@H]3C(C)(C)O)c2cc1OC
Summary of the method: as §1

gefitinib = compound: COc1cc2ncnc(Nc3ccc(F)c(Cl)c3)c2cc1OCCCN1CCOCC1 [gefitinib]
Summary of the method: as §1

[7] = compound: COc1cccc2cc(-c3nc([C@H]4CC[C@H](C(=O)O)CC4)n4ncnc(N)c34)[nH]c12
Summary of the method: as §1

lapatinib = compound: CS(=O)(=O)CCNCc1ccc(-c2ccc3ncnc(Nc4ccc(OCc5cccc(F)c5)c(Cl)c4)c3c2)o1 [lapatinib]
Summary of the method: as §1

ispinesib = compound: Cc1ccc(C(=O)N(CCCN)[C@@H](c2nc3cc(Cl)ccc3c(=O)n2Cc2ccccc2)C(C)C)cc1 [ispinesib]
Summary of the method: as §1

Measured: log2 fold change

NSD3 (UniProt Q9BZ95)
inactive: [1] -0.134 | filanesib 0.378 | zotarolimus 0.076 | idasanutlin 0.061 | pictilisib -0.145 | [2] -0.189 | crizotinib -0.049 | [3] -0.451 | [4] 0.086 | duvelisib -0.101 | gandotinib -0.187 | tozasertib -0.045 | [5] -0.341 | doramapimod 0.02

NOLC1 isoform 2 (UniProt Q14978)
inactive: [1] 0.016 | filanesib 0.21 | zotarolimus 0.015 | idasanutlin 0.199 | alisertib -0.112 | [6] -0.093 | gefitinib 0.041 | [7] 0.104 | lapatinib 0.052 | pictilisib 0.056 | [2] -0.019 | crizotinib -0.135 | [3] 0.141 | [4] -0.154 | gandotinib -0.023 | [5] -0.038 | doramapimod 0.047 | ispinesib 0.179

NMRAL1 (UniProt Q9HBL8)
inactive: [1] 0.678 | filanesib -0.084 | zotarolimus 0.135 | idasanutlin -0.268 | alisertib -0.099 | [6] 0.184 | gefitinib 0.257 | [7] 0.003 | lapatinib -0.003 | pictilisib 0.83 | [2] 0.228 | crizotinib 0.469 | [3] 0.054 | [4] 0.04 | gandotinib -0.169 | [5] -0.009 | doramapimod 0.001 | ispinesib -0.103

NEU1 (UniProt Q99519)
inactive: [1] 0.153 | filanesib -0.107 | zotarolimus 0.001 | idasanutlin 0.015 | alisertib -0.123 | [6] -0.05 | gefitinib -0.091 | [7] -0.073 | lapatinib -0.015 | pictilisib -0.113 | [2] -0.005 | [3] -0.15 | [4] 0.029 | gandotinib -0.056 | [5] -0.008 | doramapimod 0.155
active: crizotinib -0.365 | ispinesib -0.319

NME7 (UniProt Q9Y5B8)
inactive: [1] -0.1 | filanesib 0.124 | zotarolimus 0.058 | idasanutlin -0.041 | alisertib 0.054 | [6] 0.015 | [7] -0.077 | lapatinib -0.046 | pictilisib 0.071 | [2] -0.187 | crizotinib -0.136 | [3] -0.027 | [4] 0.046 | gandotinib -0.091 | [5] 0.056 | doramapimod 0.033 | ispinesib -0.117

NSL1 (UniProt Q96IY1)
inactive: [1] 0.279 | filanesib -0.117 | zotarolimus -0.061 | idasanutlin -0.017 | alisertib 0.103 | [6] -0.036 | gefitinib 0.137 | [7] -0.086 | lapatinib 0.012 | pictilisib 0 | [2] -0.067 | crizotinib 0.061 | [4] -0.026 | duvelisib 0.085 | gandotinib 0.002 | tozasertib -0.064 | [5] 0.029 | doramapimod 0.058 | ispinesib -0.058

NLRC3 isoform 2 (UniProt Q7RTR2)
inactive: [1] -0.601 | filanesib 0.059 | zotarolimus -0.09 | idasanutlin 0.148 | alisertib 0.387 | [6] 0.414 | gefitinib 0.061 | [7] 0.344 | lapatinib -0.451 | [2] 0.04 | crizotinib 0.179 | [3] 0.025 | [4] 0.529 | duvelisib 0.13 | [5] -0.241 | doramapimod -0.12 | ispinesib -0.256

NEK3 (UniProt P51956)
inactive: [1] 0.058 | filanesib -0.297 | zotarolimus 0.217 | idasanutlin 0.116 | alisertib 0.074 | [6] 0.07 | gefitinib 0.086 | [7] -0.196 | lapatinib 0.061 | pictilisib 0.161 | [2] -0.086 | crizotinib 0.08 | [3] 0.19 | [4] -0.19 | gandotinib 0.103 | [5] 0.05 | doramapimod -0.014 | ispinesib -0.006

NMT2 (UniProt O60551)
inactive: [1] -0.064 | filanesib -0.018 | zotarolimus 0.019 | idasanutlin -0.062 | alisertib -0.096 | [6] 0.082 | gefitinib -0.069 | [7] -0.046 | lapatinib -0.047 | pictilisib 0.087 | [2] 0.043 | crizotinib -0.187 | [3] 0.059 | [4] 0.018 | gandotinib 0.013 | [5] 0.023 | doramapimod -0.013 | ispinesib -0.167
